Measurements reported in PMC10531313.
Results are given in words; binding and its absence hold for the method and conditions named. In cells and extracts the contact can be indirect. Sequences can lack the tags named with a protein.

Sequences of proteins named here, by UniProt entry; tags and fusion partners are left off.
UniProt Q07157: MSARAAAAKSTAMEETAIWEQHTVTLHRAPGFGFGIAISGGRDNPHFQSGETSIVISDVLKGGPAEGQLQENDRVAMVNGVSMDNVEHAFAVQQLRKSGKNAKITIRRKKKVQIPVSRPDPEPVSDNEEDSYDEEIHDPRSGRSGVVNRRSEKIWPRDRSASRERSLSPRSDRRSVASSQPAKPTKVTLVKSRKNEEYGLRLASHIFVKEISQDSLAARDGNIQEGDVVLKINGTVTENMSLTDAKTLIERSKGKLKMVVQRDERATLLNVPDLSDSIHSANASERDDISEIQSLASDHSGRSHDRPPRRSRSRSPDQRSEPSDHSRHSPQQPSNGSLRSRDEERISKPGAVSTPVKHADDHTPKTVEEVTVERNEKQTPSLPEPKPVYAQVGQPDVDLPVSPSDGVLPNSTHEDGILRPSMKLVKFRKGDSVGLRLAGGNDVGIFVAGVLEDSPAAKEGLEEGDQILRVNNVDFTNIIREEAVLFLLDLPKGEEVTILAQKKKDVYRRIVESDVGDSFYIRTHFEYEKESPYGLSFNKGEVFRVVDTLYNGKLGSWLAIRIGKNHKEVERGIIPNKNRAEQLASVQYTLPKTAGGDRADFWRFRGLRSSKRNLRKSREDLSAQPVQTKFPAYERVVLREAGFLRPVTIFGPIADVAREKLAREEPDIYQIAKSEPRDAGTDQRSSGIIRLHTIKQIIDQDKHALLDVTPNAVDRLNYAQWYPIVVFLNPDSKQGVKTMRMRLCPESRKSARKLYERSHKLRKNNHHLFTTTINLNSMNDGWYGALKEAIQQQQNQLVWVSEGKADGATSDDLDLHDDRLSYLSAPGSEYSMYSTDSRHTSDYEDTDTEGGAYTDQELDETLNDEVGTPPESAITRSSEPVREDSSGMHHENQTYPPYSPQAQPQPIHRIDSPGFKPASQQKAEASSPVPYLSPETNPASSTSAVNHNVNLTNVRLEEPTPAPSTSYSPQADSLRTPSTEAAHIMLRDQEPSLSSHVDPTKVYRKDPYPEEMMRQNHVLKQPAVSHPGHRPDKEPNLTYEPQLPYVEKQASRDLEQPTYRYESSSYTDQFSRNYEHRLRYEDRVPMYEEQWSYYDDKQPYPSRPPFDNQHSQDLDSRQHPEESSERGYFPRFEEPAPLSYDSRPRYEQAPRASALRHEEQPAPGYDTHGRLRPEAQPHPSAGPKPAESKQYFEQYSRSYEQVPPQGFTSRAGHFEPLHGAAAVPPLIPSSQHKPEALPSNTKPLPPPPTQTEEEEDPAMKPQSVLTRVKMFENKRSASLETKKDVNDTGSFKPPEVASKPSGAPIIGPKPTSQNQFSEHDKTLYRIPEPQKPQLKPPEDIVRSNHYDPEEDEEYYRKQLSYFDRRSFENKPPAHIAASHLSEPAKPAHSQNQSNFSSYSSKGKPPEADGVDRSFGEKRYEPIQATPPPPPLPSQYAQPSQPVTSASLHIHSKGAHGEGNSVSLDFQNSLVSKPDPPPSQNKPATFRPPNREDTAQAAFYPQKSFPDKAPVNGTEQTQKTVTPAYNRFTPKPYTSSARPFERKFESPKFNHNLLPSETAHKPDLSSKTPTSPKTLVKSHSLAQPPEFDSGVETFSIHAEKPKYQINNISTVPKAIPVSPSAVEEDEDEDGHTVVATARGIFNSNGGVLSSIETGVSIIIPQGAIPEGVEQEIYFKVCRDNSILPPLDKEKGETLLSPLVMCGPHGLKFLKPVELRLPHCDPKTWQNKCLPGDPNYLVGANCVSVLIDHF

Biological target: T1, 3xFLAG-dyskerin (Flag-tagged full-length dyskerin) (human) (UniProt O60832)
T1 sequence: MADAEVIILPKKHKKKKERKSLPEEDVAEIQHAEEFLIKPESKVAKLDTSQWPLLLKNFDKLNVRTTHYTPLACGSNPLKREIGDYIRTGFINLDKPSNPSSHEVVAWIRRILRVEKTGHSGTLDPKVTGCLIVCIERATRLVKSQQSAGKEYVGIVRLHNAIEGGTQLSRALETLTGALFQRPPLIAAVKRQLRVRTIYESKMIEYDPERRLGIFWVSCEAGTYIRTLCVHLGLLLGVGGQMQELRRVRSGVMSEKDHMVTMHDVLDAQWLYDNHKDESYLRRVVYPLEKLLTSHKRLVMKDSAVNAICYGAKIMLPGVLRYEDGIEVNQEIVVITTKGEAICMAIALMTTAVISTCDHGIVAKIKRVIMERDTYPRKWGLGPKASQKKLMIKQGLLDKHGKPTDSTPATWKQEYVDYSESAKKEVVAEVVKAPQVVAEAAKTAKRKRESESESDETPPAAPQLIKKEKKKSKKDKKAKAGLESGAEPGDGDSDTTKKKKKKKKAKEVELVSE
Test: co-IP; lysates (about 1 mg, RIPA buffer: 50 mM Tris pH 8, 150 mM NaCl, 5 mM EDTA, 1% NP40) of HEK and U2OS cells transfected with 3xFLAG-dyskerin, incubated overnight at 4 °C with ANTI-FLAG M2 Affinity Gel beads, washed with TBS, immunoblot; also after mild heat shock of the cells (45 °C 30 min, 30 min recovery)

binding: no binding
Substance: membrane protein Zo-1 (from UniProt Q07157 1-1748)
